According to paper PMC7819943, “Rice protein-binding microarrays: a tool to detect cis-acting elements near promoter regions in rice”:
The other results are listed elsewhere or left out.

Each sequence was assayed against T1, OsSMF1 (Oryza sativa, UniProt Q6ZLB0 1-436) (assay: protein-binding microarray (RPBM); PBS, 2% BSA, 51.3 ng/ul salmon testes DNA, 50 uM zinc acetate, 200 nM TF, 25 C, 1 h; high values mean tight binding). Details: protein: recombinant; tags: N-terminal polyhistidine and DsRed monomer fusion (pET32a); chain copies: 2; label: CyDye5-dUTP incorporated in the synthesized complementary strand; 3' TTTTT single-stranded linker to array surface; dsDNA, one strand shown.
T1 sequence: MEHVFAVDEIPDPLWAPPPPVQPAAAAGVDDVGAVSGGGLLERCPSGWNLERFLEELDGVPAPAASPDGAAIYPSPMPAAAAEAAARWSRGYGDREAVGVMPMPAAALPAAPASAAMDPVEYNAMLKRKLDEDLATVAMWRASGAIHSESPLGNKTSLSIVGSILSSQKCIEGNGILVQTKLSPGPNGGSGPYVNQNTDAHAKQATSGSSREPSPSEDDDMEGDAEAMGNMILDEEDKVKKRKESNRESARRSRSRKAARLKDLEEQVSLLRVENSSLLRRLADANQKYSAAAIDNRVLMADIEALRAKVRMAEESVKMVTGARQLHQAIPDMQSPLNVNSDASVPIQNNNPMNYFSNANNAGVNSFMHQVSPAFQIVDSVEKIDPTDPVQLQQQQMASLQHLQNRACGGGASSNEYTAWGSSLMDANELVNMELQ
Method in brief: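 For the binding signal, per-feature fluorescence intensity was read in arbitrary units on an Axon 4000B scanner. Before scanning, a 2% BSA-blocked custom Agilent array made double-stranded with Cy5-dUTP was washed after 1 h at 25 °C with 200 nM protein and 50 µM zinc acetate. The proteins were Ni–NTA-purified transcription factors with N-terminal polyhistidine and DsRed fusions, expressed in E. coli BL21-CodonPlus.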
For “CTCATTCTCCCTTTCTTCCATTTTAGATTTTAATTTCTTCCGGAGTCACCTAGTGCAG”, the binding signal was 25900 fluorescence intensity (a.u.). In the case of “CCGACGCGCGCACCCGCTGCTTCGTCATCCAGGGCTCCGACGGAGTCACCTAGTGCAG”, the binding signal is reported as 3730 fluorescence intensity (a.u.). “CCAGGGGCTGGGCGGGCACCGGACAAGCCACACGCGGCTGCGGAGTCACCTAGTGCAG” was tested, and the binding signal was 3310 fluorescence intensity (a.u.). With “TCAATGTTGTAAATTAGACACCTGCAAGATACTCCCTCTGCGGAGTCACCTAGTGCAG” the binding signal was 23600 fluorescence intensity (a.u.). “GAATGCTTTTGTTGTGGTCGGTCACCTTCGATCGGATGCACGGAGTCACCTAGTGCAG” was tested, and the binding signal was 3510 fluorescence intensity (a.u.). In the case of “CTCGACTATGCCACGTCAGCGATTCGGTACAGTACTACAGCGGAGTCACCTAGTGCAG”, the binding signal is reported as 14100 fluorescence intensity (a.u.). With “ATATCAATCCAACGCATAGCAGTAGTCGACCGAGTAGACACGGAGTCACCTAGTGCAG” the binding signal was 3740 fluorescence intensity (a.u.). With “CGCCTGCGATTGGCGGCGCGGTAGGAGGGGTGGTGCCGCCCGGAGTCACCTAGTGCAG” the binding signal was 35600 fluorescence intensity (a.u.). In the case of “CATGGTGCTCACGTGACATGCTACATGGGTGTTGACTCATCGGAGTCACCTAGTGCAG”, the binding signal is reported as 5280 fluorescence intensity (a.u.). “AGTGGTAGTGGTATCCACCTGTGCCATAAATATATCCTCCCGGAGTCACCTAGTGCAG” was tested, and the binding signal was 4060 fluorescence intensity (a.u.). “CTGATCAGCAGCCACCACCACCGGTCACCCCTGCAGGCCTCGGAGTCACCTAGTGCAG” was tested, and the binding signal was 37000 fluorescence intensity (a.u.). “TCAATTTGACGTTAACAGTGCCACGAGTACAGCCAAACCGCGGAGTCACCTAGTGCAG” was tested, and the binding signal was 3460 fluorescence intensity (a.u.). With “GTATGTACAAAAGGGGAGAGAGGGTTACGTGTGGGAGGAGCGGAGTCACCTAGTGCAG” the binding signal was 3340 fluorescence intensity (a.u.). In the case of “TATTATCACAGTGACGTTGATAGTGTCTCTGGTCGCCTGACGGAGTCACCTAGTGCAG”, the binding signal is reported as 4060 fluorescence intensity (a.u.). “TGACTGTATTGAAAGATAGTTGATGCATTTACGTAGTAGTCGGAGTCACCTAGTGCAG” was tested, and the binding signal was 3270 fluorescence intensity (a.u.). “AAAATCCACGGCGCGGCGCCGTGGCCGTCGGATTTCCCGCCGGAGTCACCTAGTGCAG” was tested, and the binding signal was 3330 fluorescence intensity (a.u.). For “ATGTTTAGTACTAGTTTCTCGATGATGTGGAGTTTATAGACGGAGTCACCTAGTGCAG”, the binding signal was 6530 fluorescence intensity (a.u.). For “TAAGGAGGGTGTTGGGAGGGTGGGAGCTTTGCTTGGGGTGCGGAGTCACCTAGTGCAG”, the binding signal was 3950 fluorescence intensity (a.u.). For “GTGAACTGGTGGTGTTCCGAGCTGTGGTCGCATATATATCCGGAGTCACCTAGTGCAG”, the binding signal was 3410 fluorescence intensity (a.u.). In the case of “TGAAAATATAGGGTATATATAATTGTAGAGATGACGTCGTCGGAGTCACCTAGTGCAG”, the binding signal is reported as 3230 fluorescence intensity (a.u.). For “TACACATATATCGCCCATATACGTCCACGTCAACACATTTCGGAGTCACCTAGTGCAG”, the binding signal was 16000 fluorescence intensity (a.u.). With “ATGTTTCTGCGGCCCGTCATCCGTGTTTGAGTCGGTTATACGGAGTCACCTAGTGCAG” the binding signal was 4220 fluorescence intensity (a.u.). “CGTCGCCGCCAACTACGCCGACCTCACCACCGCCGCGTGGCGGAGTCACCTAGTGCAG” was tested, and the binding signal was 4720 fluorescence intensity (a.u.). In the case of “AAGCGCACGCACACATATGCCACGCATTGACGCATGGCACCGGAGTCACCTAGTGCAG”, the binding signal is reported as 5630 fluorescence intensity (a.u.). With “ACCGCGCCGACCTCGACCTCACGCGCCTCGGCCGGCAAAGCGGAGTCACCTAGTGCAG” the binding signal was 5650 fluorescence intensity (a.u.). “CACAAATTGTAAACATACTACCACCTCAGCTTGCTAGGCGCGGAGTCACCTAGTGCAG” was tested, and the binding signal was 4370 fluorescence intensity (a.u.). In the case of “CCTGCTGACCAACCTACGCTAGCTATCTTCCTCTTGTCGTCGGAGTCACCTAGTGCAG”, the binding signal is reported as 3940 fluorescence intensity (a.u.). With “CTTCTTCCCATCAACACCATCGCCACATCACAAGCAGCCACGGAGTCACCTAGTGCAG” the binding signal was 4700 fluorescence intensity (a.u.). “CGCGTTGAGTGCAGCGTACGTGGAAGCCTTCCCAGCCTGTCGGAGTCACCTAGTGCAG” was tested, and the binding signal was 3360 fluorescence intensity (a.u.). “CAAGATGTCCAGCGCCGACGTGGAAGGGGCCGAGAAGGTGCGGAGTCACCTAGTGCAG” was tested, and the binding signal was 4240 fluorescence intensity (a.u.). With “ATCTGGAGGAGAGGTGAGACGAGCGTGGCGGAGACCGGTGCGGAGTCACCTAGTGCAG” the binding signal was 3780 fluorescence intensity (a.u.). In the case of “TAACCGGTAGAGGCGTGTCATTCTGACGCGGACGGCCACTCGGAGTCACCTAGTGCAG”, the binding signal is reported as 8840 fluorescence intensity (a.u.). In the case of “TTTATACATATGTGTTTATCATACCTCACGTGTCGTATATCGGAGTCACCTAGTGCAG”, the binding signal is reported as 4720 fluorescence intensity (a.u.). “TGAGTGCAGCTACATCAAGATTCCGTCAGCATTTATGAATCGGAGTCACCTAGTGCAG” was tested, and the binding signal was 5400 fluorescence intensity (a.u.). “ATGTCCTCCTCTCGTTGACATCTTGACTTTCGTTGCCACCCGGAGTCACCTAGTGCAG” was tested, and the binding signal was 24000 fluorescence intensity (a.u.). For “CCCTAGAGGAGGGAAGGAGGAAGGGGATGGACAAAGTAGACGGAGTCACCTAGTGCAG”, the binding signal was 3410 fluorescence intensity (a.u.). For “AAAGCAACTGCTAACTCGCAAAGGTGTCACCAAGTTGCCCCGGAGTCACCTAGTGCAG”, the binding signal was 3200 fluorescence intensity (a.u.). “TCGCCCACGGATTCCCCTCCACTCGCACTGTCAGTCTGTCCGGAGTCACCTAGTGCAG” was tested, and the binding signal was 4180 fluorescence intensity (a.u.). With “CAAAACTCACGTGGGTATTCAAATTCGAACTATATACATCCGGAGTCACCTAGTGCAG” the binding signal was 3530 fluorescence intensity (a.u.). “TTTTGTTATTAGTCTACGTTTAATAATTCAAATACGTGTCCGGAGTCACCTAGTGCAG” was tested, and the binding signal was 3880 fluorescence intensity (a.u.). In the case of “TATCTCCCTCGGGAGACGTGCCACGTCGCTGTGTCTATCACGGAGTCACCTAGTGCAG”, the binding signal is reported as 9480 fluorescence intensity (a.u.). For “CTCGCCCTCGACACGCTGGAAGTTTGTGTACGCGTCATTCCGGAGTCACCTAGTGCAG”, the binding signal was 9100 fluorescence intensity (a.u.).
